Source: PubChem BioAssay AID493014 (National Center for Advancing Translational Sciences (NCATS), 2011)
Where “and” joins values, the source holds several entries; their conditions need not be identical. Equal entries are not always repeated. The list shows a part of the results. Further columns of the screen follow, without active or inactive calls. The list favours compounds with an active or inconclusive main result. The note in brackets gives the kind of curve behind each potency; many fits are weak.

Assay: qHTS Assay to Find Inhibitors of Chronic Active B-Cell Receptor Signaling
Settings: ABC-DLBCL IkBa-CBG/CBR reporter, luminescence ratio (green luciferase fused to IkBa over red control in TMD8 lymphoma cells), 4 h
In short: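 Compounds up to 46 uM were incubated four hours with TMD8 cells whose green CBG68 luciferase is fused to IkappaBalpha; red CBR luminescence normalised the signal, and concentration-effect curves were fitted to fusion, red and ratio data.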

[1] = measured here: CBR red luminescence, cell number
[2] = measured here: IkBa-CBG green luminescence

Structure (SMILES) | AC50 [1] | AC50 [2]
COc1ccc(C(=O)Oc2ccc(/C=N/NC(=O)c3ccccc3OC)cc2[N+](=O)[O-])cc1 | 1.3 µM [falling, partial curve, poor fit] | –
Cc1cc(NC(=O)CSc2ccc(-c3ccc(Br)cc3)nn2)no1 | 15.8 µM [rising, single point] | –
FC(F)Oc1ccc(N=C2SCC3CCCCN23)cc1 (stereo not drawn) | 3.55 µM [rising, full curve] | –
COc1ccc(C(=O)Nc2cc(Cl)cc(Cl)c2)c(OC)n1 | 15.8 µM [rising, partial curve, poor fit] | –
CS/C(=C/[N+](=O)[O-])Nc1cccc2c1C(C)CC2(C)C (stereo not drawn) | 14.1 µM [falling, single point] | –
COc1ccc(/C=C/C(=O)NC(=S)Nc2ccc(S(=O)(=O)Nc3ccc(OC)nn3)cc2)cc1 | 20.6 µM [rising, single point] | –
Brc1ccc2nc3c(n2c1)CCCC3 | 12.6 µM [rising, partial curve] | –
CC(=O)c1cccc(CN2CCC(C(=O)Nc3ccc(-c4cccc(C)c4)cc3)CC2)c1 | 25.1 µM [falling, single point] | 22.4 µM [falling, partial curve, poor fit]
Cc1ccccc1OCC(=O)Nc1ccc(N2CCN(C(=O)c3ccco3)CC2)cc1 | 35.5 µM [falling, single point] | –
CC(=O)N1CCN(c2ccc(NC(=O)c3cccc(OCc4ccccc4)c3)cc2)CC1 | 2.24 µM [falling, partial curve, poor fit] | –
O=C(O)c1ccc2c(c1)C(=O)N(NC(=O)c1ccccc1)C2=O | 11.2 µM [falling, partial curve, poor fit] | –
Cc1c(NC(=O)C(C)Sc2nccn2C)c(=O)n(-c2ccccc2)n1C (stereo not drawn) | 0.92 µM [falling, full curve] | –
COC(=O)CCCC1=CC2=CC(=O)C(C)(OC(=O)c3cccs3)C(=O)C2=CN1c1ccc(OC)cc1 (stereo not drawn) | 2.82 µM [rising, partial curve, poor fit] | –
O=c1cc(-c2ccc(F)cc2F)[nH]c2ccccc12 | 13 µM [rising, partial curve, poor fit] | –
Cc1ccc(C(NC(=O)/C=C\c2ccc3c(c2)OCO3)C(=O)Nc2ccc3c(c2)OCO3)cc1 (stereo not drawn) | 4.11 µM [rising, full curve, poor fit] | –
Cc1cccc(NC(=O)CSc2nc3[nH]ncc3c(=O)n2-c2ccccc2)c1 | 7.31 µM [falling, partial curve, poor fit] | –
COc1ccc(C(=O)OCC(=O)NCc2ccco2)cc1OC | 29.1 µM [rising, single point] | –
CCN(CCCNC(=O)c1cn(CC)c2ccc(S(=O)(=O)N(C)C)cc2c1=O)c1cccc(C)c1 | 35.5 µM [falling, single point] | –
CCN1CCc2c(sc(NC(=O)Nc3ccc(Cl)c(Cl)c3)c2C(N)=O)C1 | 13 µM [falling, partial curve] | –
COc1ccc(CCNC(=O)C(=O)NCC2OCCN2S(=O)(=O)c2ccc(OC)c(OC)c2)cc1OC (stereo not drawn) | 22.4 µM [rising, single point] | –
COc1ccc(C(=O)C[n+]2ccc(N(C)C)cc2)cc1 | 6.31 µM [falling, single point] | –

Structure (SMILES) | AC50 [1] | AC50 [2]
O=C(COc1ccccc1)NC(=S)Nc1ccc(Br)cn1 | 0.794 µM [rising, full curve, poor fit] | –
C/C=C(/C)C(=O)O[C@@H]1[C@H](OC(=O)C=C(C)C)c2c(ccc3ccc(=O)oc23)OC1(C)C | 2.91 µM [rising, full curve, poor fit] | –
COc1cc(/C=C/C(=O)O)ccc1OS(=O)(=O)c1c(C)cc(C)cc1C | 0.517 µM [falling, full curve] | –
COc1cc(-c2nnc(NC(=O)CCS(=O)(=O)c3ccccc3)o2)cc(OC)c1OC | 7.31 µM [rising, partial curve] | –
COCCOC(=O)c1[nH]c2c(c1C)C(=O)CC(c1ccc(N(C)C)cc1)C2 (stereo not drawn) | 18.4 µM [falling, partial curve, poor fit] | –
O=C(CN1CCN(c2nc(-c3ccc(F)cc3)cs2)CC1)NCc1ccc2c(c1)OCO2 | 29.1 µM [falling, single point] | –
CCOC(=O)c1cccnc1SCc1cc(=O)n2ccccc2n1 | 7.94 µM [falling, partial curve, poor fit] | –
OCCN1CCN(c2ncnc3c2cnn3-c2cccc(Cl)c2)CC1 | 8.91 µM [falling, partial curve, poor fit] | –
CC(C)(C)NC(=O)C(c1ccc(O)cc1)N(C(=O)CCC(=O)Nc1nccs1)c1ccccc1F (stereo not drawn) | 11.2 µM [falling, partial curve] | –
COCCN(CC(=O)NCC1CCCO1)C(=O)CCC(=O)Nc1cc(C)ccn1 (stereo not drawn) | 0.146 µM [falling, full curve, poor fit] | –
COc1cccc(C2CC(c3ccccc3)n3ncnc3N2)c1 (stereo not drawn) | 7.31 µM [falling, partial curve, poor fit] | –
C(=N\N(Cc1ccccc1)c1ccccc1)/c1ccco1 | 14.1 µM [rising, single point] | –
COC(=O)c1ccc(NC(=O)COc2ccccc2OC)cc1 | 11.2 µM [falling, partial curve, poor fit] | –
COc1ccc(NC(=O)C2CCCN(S(=O)(=O)c3cccc4cccnc34)C2)cc1 (stereo not drawn) | 20.6 µM [rising, partial curve, poor fit] | –
CC(=O)N1CCC(N(CCCOC(C)C)S(=O)(=O)c2ccc([N+](=O)[O-])cc2)CC1 | 35.5 µM [rising, single point] | –
CCCn1c(SCC(=O)Nc2nonc2C)nnc1-c1ccoc1C | 4.11 µM [falling, single point] | –
CCc1ccc(NC(=O)COC(=O)/C=C/c2ccco2)cc1 | 16.4 µM [rising, single point] | –
COc1cc(/C=C2/SC(=S)N(Cc3ccccc3)C2=O)ccc1O | 17.8 µM [rising, partial curve] | –
Cc1ccccc1-n1c(-c2ccc(=O)[nH]n2)n[nH]c1=S | 35.5 µM [falling, single point] | –
O=C(Nc1ccc(F)cc1)c1ccc2nsnc2c1 | 8.91 µM [falling, partial curve, poor fit] | –
c1csc(CNc2ncnc3ccc(-c4ccoc4)cc23)c1 | 9.2 µM [rising, partial curve, poor fit] and 4.11 µM [rising, full curve, poor fit] | –

3 entries picked at random from those above:
Structure (SMILES) | AC50 [1] | AC50 [2]
COc1cccc(C2CC(c3ccccc3)n3ncnc3N2)c1 (stereo not drawn) | 7.31 µM [falling, partial curve, poor fit] | –
CCOC(=O)c1cccnc1SCc1cc(=O)n2ccccc2n1 | 7.94 µM [falling, partial curve, poor fit] | –
COc1cc(-c2nnc(NC(=O)CCS(=O)(=O)c3ccccc3)o2)cc(OC)c1OC | 7.31 µM [rising, partial curve] | –

(list continues)

Structure (SMILES) | AC50 [1] | AC50 [2]
Oc1ccc(/C=N/Nc2cccc3cccnc23)c(O)c1 | 23.1 µM [falling, single point] | –
O=C(CCSc1nnc(-c2ccc(O)cc2)o1)N1CCOCC1 | 6.31 µM [rising, partial curve] | –
Cc1ccc(C)c(S(=O)(=O)N2CCCOC2CNC(=O)C(=O)NCc2ccccc2)c1 (stereo not drawn) | 3.55 µM [rising, single point] | –
COc1cccc2cc(C(=O)Nc3ccccc3C)/c(=N/O)oc12 | 7.08 µM [falling, full curve, poor fit] | –
CC(C)C[C@H](NC(=O)c1nc[nH]c1C(=O)NCc1ccccc1)C(=O)OC(C)(C)C | 0.112 µM [rising, full curve, poor fit] | –
CCN(CCCNC(=O)C1CCN(S(=O)(=O)c2c(C)[nH]c(=O)[nH]c2=O)CC1)c1cccc(C)c1 | 3.66 µM [rising, partial curve, poor fit] | –
Cc1ccc(N2CCN(/N=C/c3cccs3)CC2)cc1 | 6.51 µM [rising, single point] | –
Cn1c(SCC(=O)N(Cc2ccccc2)C(C)(C)C)nc2ccccc21 | 3.26 µM [falling, partial curve, poor fit] | –
Cc1cccc([C@@H]2[C@@H]3C(=O)N(Cc4ccccc4)C(=O)[C@@H]3[C@]3(Cc4ccc(Cl)cc4)C(=O)N(c4ccccc4)C(=O)N23)c1 | 4.47 µM [rising, full curve, poor fit] | –
COc1ccc(NC(=O)c2onc(C)c2Cl)cc1OC | 29.1 µM [falling, single point] | –
COc1ccc(Cl)cc1NS(=O)(=O)c1cccc(C(=O)NCC2(N(C)C)CCCCC2)c1 | 12.6 µM [falling, partial curve, poor fit] | –
O=C(c1ccccc1F)N1CCN=C1SCc1cccnc1 | 6.51 µM [rising, single point] | –
O=C(COC(=O)c1ccc(S(=O)(=O)Nc2ccccc2)cc1)NCC1CCCO1 (stereo not drawn) | 6.31 µM [rising, single point] | –
O=C(CN1CCOCCOCCN(CC(=O)Nc2ccccc2)CCOCC1)Nc1ccccc1 | 5.62 µM [rising, single point] | –
COc1ccc(CCNC(=O)c2cc(-c3ccccc3O)n[nH]2)cc1OC | 6.51 µM [falling, partial curve, poor fit] | –
CCOC(=O)COc1ccccc1/C=C\[N+](=O)[O-] | 23.1 µM [falling, partial curve] | –
Cc1ccccc1COCCN1CCN(S(=O)(=O)c2ccccc2)CCC1=O | 3.16 µM [falling, single point] | –
CC(=O)c1c(C)n(-c2ccccc2)c2ccc(OCC(N)=O)cc12 | 3.98 µM [rising, partial curve, poor fit] | –
Cc1sc(NC(=O)c2ccccc2)c(C#N)c1-c1ccccc1 | 3.26 µM [rising, partial curve, poor fit] | 3.26 µM [falling, partial curve, poor fit]
